These are yes or no findings as the source states them, for the method shown. Some results given as binding are weak or reduced against the parent protein; the word gives no strength.
Target: lamin LIII (X. laevis (endogenous in oocyte nuclei)) (UniProt P10999)
Assay: cryo-electron tomography; nuclear envelopes of X. laevis oocytes spread on carbon grids, washed with low-salt buffer, plunge-frozen; filaments assembled in situ

binding: binds
B1: lamin LIII (protein, UniProt P10999 1-583)
chain: MATSTPSRAREHASAAQSPGSPTRISRMQEKEDLRHLNDRLAAYIERVRSLEADKSLLKIQLEEREEVSSREVTNLRQLYETELADARKLLDQTANERARLQVELGKVREEYRQLQARNSKKENDLSLAQNQLRDLESKLNTKEAELATALSGKRGLEEQLQEQRAQIAGLESSLRDTTKQLHDEMLWRVDLENKMQTIREQLDFQKNIHTQEVKEIKKRHDTRIVEIDSGRRVEFESKLAEALQELRRDHEQQILEYKEHLEKNFSAKLENAQLAAAKNSDYASATREEIMATKLRVDTLSSQLNHYQKQNSALEAKVRDLQDMLDRAHDMHRRQMTEKDREVTEIRQTLQGQLEEYEQLLDVKLALDMEINAYRKMLEGEEQRLKLSPSPSQRSTVSRASTSQTSRLLRGKKRKLDETGRSVTKRSYKVVQQASSTGPVSVEDIDPEGNYVRLLNNTEEDFSLHGWVVKRMHMSLPEIAFKLPCRFILKSSQRVTIWAAGAGAVHSPPTDLVWKSQKTWGTGDNIKITLLDSTGEECAERTLYRVIGEEGETDEDFVEEEELERQFRSQSHQSVDPSCSIM
modifications: farnesylated

— publication PMC7718915
